From the supplement of paper PMC12819154, “High-throughput peptide-centric local stability assay extends protein–ligand identification to membrane proteins, tissues and bacteria” (Nature Structural & Molecular Biology, 2025)
The other results are listed elsewhere or left out. Small differences around the control level are noise.

Chains of the proteins cited; added tags and fusions are not shown. Lines headed by an entry give the natural chain unless they say otherwise; changes in a name come on top.
UniProt Q9ULZ3, whole entry: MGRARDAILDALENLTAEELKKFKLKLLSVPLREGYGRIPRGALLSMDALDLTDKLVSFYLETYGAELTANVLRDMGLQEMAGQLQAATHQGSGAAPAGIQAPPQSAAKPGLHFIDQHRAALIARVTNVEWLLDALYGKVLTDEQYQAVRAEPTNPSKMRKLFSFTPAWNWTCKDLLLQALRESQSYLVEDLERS
UniProt Q9UM82: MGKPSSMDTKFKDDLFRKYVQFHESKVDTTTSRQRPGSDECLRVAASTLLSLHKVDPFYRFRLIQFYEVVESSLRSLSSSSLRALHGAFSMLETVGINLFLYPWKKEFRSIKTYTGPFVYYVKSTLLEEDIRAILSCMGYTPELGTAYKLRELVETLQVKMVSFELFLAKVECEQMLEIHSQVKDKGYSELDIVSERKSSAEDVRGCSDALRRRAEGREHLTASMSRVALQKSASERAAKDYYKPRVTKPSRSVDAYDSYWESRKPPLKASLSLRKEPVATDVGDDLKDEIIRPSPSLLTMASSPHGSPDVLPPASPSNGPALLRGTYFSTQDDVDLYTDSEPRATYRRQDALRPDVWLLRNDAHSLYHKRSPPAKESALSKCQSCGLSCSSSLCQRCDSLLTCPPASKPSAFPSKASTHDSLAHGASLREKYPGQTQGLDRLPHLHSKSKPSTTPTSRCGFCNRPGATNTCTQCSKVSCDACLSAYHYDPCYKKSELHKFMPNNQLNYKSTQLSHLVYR
UniProt Q9Y316: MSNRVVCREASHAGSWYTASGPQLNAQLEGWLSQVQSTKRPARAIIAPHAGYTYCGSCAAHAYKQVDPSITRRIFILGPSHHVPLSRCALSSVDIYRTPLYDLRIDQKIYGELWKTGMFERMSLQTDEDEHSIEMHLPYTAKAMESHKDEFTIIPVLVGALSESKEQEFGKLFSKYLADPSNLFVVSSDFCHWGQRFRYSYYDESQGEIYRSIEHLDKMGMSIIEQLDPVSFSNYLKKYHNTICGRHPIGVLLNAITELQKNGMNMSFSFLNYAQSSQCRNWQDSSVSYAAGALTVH
UniProt Q9Y365: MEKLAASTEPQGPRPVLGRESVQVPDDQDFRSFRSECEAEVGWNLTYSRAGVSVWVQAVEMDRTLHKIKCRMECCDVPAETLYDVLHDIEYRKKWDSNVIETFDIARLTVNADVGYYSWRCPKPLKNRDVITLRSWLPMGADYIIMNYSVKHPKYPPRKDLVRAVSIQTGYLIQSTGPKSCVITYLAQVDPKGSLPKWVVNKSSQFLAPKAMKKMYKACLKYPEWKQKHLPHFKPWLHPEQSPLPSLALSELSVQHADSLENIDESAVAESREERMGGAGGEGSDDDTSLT
UniProt Q9Y295: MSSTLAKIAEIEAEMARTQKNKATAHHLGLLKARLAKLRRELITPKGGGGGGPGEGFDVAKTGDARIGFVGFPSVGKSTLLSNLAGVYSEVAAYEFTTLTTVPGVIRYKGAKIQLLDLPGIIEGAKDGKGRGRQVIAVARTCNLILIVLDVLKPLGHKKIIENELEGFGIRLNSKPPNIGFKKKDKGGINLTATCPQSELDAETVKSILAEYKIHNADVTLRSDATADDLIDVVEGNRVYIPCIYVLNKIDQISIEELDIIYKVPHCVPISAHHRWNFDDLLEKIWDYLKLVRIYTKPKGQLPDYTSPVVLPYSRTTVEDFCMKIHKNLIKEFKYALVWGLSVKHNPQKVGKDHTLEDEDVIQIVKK
UniProt Q9UNF0: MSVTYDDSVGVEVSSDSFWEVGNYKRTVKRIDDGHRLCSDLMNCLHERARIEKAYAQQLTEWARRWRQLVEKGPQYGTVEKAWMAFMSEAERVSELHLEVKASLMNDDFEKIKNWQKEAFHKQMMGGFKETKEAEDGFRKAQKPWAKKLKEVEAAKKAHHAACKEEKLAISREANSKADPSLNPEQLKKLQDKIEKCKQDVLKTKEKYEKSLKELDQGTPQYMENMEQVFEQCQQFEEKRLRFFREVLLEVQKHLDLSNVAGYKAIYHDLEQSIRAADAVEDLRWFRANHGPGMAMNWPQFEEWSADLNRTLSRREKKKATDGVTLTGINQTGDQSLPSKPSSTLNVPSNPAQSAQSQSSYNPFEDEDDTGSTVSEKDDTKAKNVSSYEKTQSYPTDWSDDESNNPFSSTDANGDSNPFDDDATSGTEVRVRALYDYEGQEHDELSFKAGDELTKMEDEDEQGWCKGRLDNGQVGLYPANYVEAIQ
UniProt Q9UL46, whole entry: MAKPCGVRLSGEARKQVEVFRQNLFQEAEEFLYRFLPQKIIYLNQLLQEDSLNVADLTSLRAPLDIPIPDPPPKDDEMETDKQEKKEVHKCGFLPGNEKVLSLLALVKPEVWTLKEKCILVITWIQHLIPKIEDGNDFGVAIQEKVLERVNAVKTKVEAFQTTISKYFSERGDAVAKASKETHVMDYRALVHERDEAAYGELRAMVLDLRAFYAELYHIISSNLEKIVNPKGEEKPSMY
UniProt Q9Y289: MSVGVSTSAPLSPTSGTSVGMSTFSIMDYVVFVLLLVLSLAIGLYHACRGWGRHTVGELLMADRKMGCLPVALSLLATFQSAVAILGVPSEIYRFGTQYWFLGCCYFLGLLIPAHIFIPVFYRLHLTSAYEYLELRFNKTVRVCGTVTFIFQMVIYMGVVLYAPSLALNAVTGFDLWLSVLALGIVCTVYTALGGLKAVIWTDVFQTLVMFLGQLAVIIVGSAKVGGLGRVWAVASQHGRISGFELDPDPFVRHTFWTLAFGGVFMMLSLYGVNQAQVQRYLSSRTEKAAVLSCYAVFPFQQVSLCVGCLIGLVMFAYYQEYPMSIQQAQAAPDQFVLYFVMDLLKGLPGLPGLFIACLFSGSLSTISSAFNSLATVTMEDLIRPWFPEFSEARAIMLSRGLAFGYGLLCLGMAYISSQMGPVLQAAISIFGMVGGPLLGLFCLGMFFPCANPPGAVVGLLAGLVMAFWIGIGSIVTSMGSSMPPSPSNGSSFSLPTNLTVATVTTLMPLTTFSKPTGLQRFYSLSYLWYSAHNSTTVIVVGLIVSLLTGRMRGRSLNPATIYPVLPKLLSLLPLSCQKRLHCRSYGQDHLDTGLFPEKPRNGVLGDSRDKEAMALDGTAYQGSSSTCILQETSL
UniProt Q9Y2V2: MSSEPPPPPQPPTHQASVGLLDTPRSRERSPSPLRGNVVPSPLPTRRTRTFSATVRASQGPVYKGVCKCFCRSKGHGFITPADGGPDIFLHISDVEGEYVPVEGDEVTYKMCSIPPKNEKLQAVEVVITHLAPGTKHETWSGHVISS
UniProt Q9UQF2: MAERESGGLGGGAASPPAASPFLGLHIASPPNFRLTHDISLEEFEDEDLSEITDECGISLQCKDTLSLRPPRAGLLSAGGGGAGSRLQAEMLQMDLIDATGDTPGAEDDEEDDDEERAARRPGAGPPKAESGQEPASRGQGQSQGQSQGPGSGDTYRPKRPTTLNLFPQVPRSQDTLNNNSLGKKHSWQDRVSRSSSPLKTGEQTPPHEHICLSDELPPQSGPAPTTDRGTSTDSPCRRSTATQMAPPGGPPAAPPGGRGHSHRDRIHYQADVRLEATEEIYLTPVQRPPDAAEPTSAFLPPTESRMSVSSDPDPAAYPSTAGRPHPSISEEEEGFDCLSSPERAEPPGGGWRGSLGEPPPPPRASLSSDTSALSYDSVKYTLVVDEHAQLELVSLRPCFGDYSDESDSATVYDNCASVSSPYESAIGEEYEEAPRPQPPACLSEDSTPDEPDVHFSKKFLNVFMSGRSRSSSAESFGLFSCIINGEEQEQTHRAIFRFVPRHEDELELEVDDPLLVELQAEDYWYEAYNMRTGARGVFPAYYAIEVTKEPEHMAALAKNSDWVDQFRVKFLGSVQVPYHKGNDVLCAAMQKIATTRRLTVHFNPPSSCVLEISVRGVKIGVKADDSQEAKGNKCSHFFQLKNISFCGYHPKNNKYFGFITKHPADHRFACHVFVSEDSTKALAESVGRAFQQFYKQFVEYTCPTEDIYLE

Each target was assayed with CN[C@@H]1C[C@H]2O[C@@](C)([C@@H]1OC)n1c3ccccc3c3c4c(c5c6ccccc6n2c5c31)C(=O)NC4 [staurosporine] (assay: log2 fold change of tryptic peptide abundance, ligand vs vehicle (limited proteolysis) (log2 ratio); higher = more trypsin-susceptible (destabilized)). Conditions: ligand concentration: 20 uM; sample: K562 cleared lysate; digestion: 4 min, 22 C (HT-PELSA RT4min, Orbitrap Astral).

Which log2 fold change does the source give for “PYCARD (peptide sequence: DLLLQALR, peptide start residue: 175) (UniProt Q9ULZ3)” here?
The log2 fold change was 0.0491.

With “UniProt Q9UM82 (peptide sequence: STQLSHLVYR, peptide start residue: 511)” as the target, how does the log2 fold change read?
The log2 fold change was 0.633.

How did the log2 fold change turn out when “MEMO1 (peptide sequence: NWQDSSVSYAAGALTVH, peptide start residue: 281) (UniProt Q9Y316)” was run?
The log2 fold change was 0.215.

For “STARD10 (peptide sequence: LAASTEPQGPRPVLGR, peptide start residue: 4) (UniProt Q9Y365)”, which log2 fold change is on record?
Its log2 fold change is 0.265.

For “DRG1 (peptide sequence: IGFVGFPSVGK, peptide start residue: 67) (UniProt Q9Y295)”, which log2 fold change is on record?
Its log2 fold change is 0.21.

With “PACSIN2 (peptide sequence: KAQKPWAK, peptide start residue: 140) (UniProt Q9UNF0)” as the target, how does the log2 fold change read?
The log2 fold change was 0.547.

For “PSME2 (peptide sequence: KQVEVFRQNLFQEAEEFLYR, peptide start residue: 15) (UniProt Q9UL46)”, which log2 fold change is on record?
Its log2 fold change is 0.506.

Which log2 fold change does the source give for “SLC5A6 (peptide sequence: SYGQDHLDTGLFPEKPR, peptide start residue: 585) (UniProt Q9Y289)” here?
The log2 fold change was 0.0868.

“CARHSP1 (peptide sequence: LQAVEVVITHLAPGTK, peptide start residue: 121) (UniProt Q9Y2V2)” was tested. Which log2 fold change did it give?
Its log2 fold change is 0.105.

Which log2 fold change does the source give for “UniProt Q9UQF2 (peptide sequence: GSLGEPPPPPR, peptide start residue: 354)” here?
The log2 fold change was 0.2.
